In the supplement of paper PMC5407854, “Inhibitor of ppGalNAc-T3-mediated O-glycosylation blocks cancer cell invasiveness and lowers FGF23 levels” (eLife, 2017):
Whole data set: some 1,700 compounds, median “T2 sensor activation Q score (MG/GFP ratio z-score vs DMSO controls)” near 0.3, cut for the highest 2% near 1.9. Some of the results follow.

system: ppGalNAc-T2 sensor; experiment: T2 sensor activation Q score (MG/GFP ratio z-score vs DMSO controls) (SD units); higher = more sensor activation (inhibition of ppGalNAc-T2 glycosylation); conditions: HEK293 sensor cells; 10 µM; 6 h
Method: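 Cells were treated with compound at 10 uM for 6 h, then MG/GFP ratio was read by flow cytometry (10,000 cells per well, duplicate wells). Q = (R - R_neg)/SD_neg relative to DMSO vehicle controls; the signal rises when the glycosyltransferase is inhibited.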

Point of comparison: O=C(NC(=O)c1c(F)cccc1F)Nc1cc(Cl)c(F)c(Cl)c1F, “T2 sensor activation Q score” value 0.55. Against it:
- c1ccc(C2NCCc3[nH]cnc32)cc1 (centres undefined) — lower, -1.1
- CCOC(=O)c1ccc2[nH]c(-c3ccc(S(=O)(=O)F)cc3)cc(=O)c2c1 — higher, 1.1
- O=C1CN=C(c2ccc[nH]2)c2cc(Cl)ccc2N1 — lower, -0.55
- O=C(CF)N(O)c1ccc(/C=C/c2ccccc2)cc1 — lower, -0.7
- Cc1cc(OCCN2CC2)c2ccccc2n1 — lower, -0.45
- CC(C)NC1C2CCC(CC2)C1(O)c1ccc(Cl)c(Cl)c1 (centres undefined) — lower, -1.4
- CO[C@@]12[C@H](COC(N)=O)C3=C(C(=O)C(C)=C(N)C3=O)N1C[C@H]1[C@@H]2N1C (some centres undefined) — lower, 0.35
- S=C1NC2(CCCCC2)NC12CCCCC2 — higher, 1.7
- CC(C)(O)C1C2OC(=O)C1C1(O)CC3OC34C(=O)OC2C14C (centres undefined) — higher, 1.3
- CC1CC(C)OP(=O)(OCCC#N)O1 (centres undefined) — lower, 0.35
- COC1C(OC(=O)c2ccc(C)[nH]2)C(O)C(Oc2ccc3c(O)c(NC(=O)c4ccc(O)c(CC=C(C)C)c4)c(=O)oc3c2Cl)OC1(C)C (centres undefined) — higher, 0.75
- CCC(CO)NC(=O)C1C=C2c3cccc4[nH]cc(c34)CC2N(C)C1 (centres undefined) — lower, -0.05
- COc1ccc(CCNC2(C#N)CCCCC2)cc1OC — lower, -0.65
- Cc1c(CCN)ccc2c1[nH]c1ccccc12 — higher, 0.7
- CC12CCC3C(CCC4Cc5[nH]c6ccccc6c5CC43C)C1CCC2O (centres undefined) — higher, 0.65
- CCC(C)c1cnc(CC(C)C)c(=O)n1O (centres undefined) — lower, -0.75
- CCN1CCc2ccccc2C1 — higher, 1.3
- NCCCNCCSP(=O)(O)O — lower, -0.45
- C[C@H](N)C(=O)N[C@@H]1[C@H]2C(=C(O)C[C@@H](O)[C@@H]2O)C(=O)O[C@]1(C)C(Cl)Cl — higher, 1.8
- CC1(C)CC(=O)CC(C)(C)N1O — lower, -1.1
- CN1C2c3ccccc3C3C4c5ccccc5C(C31)C(C2[N+](=O)[O-])N4C (centres undefined) — higher, 0.85
- CC(=O)Nc1cc([As](=O)(O)O)ccc1O — lower, 0.2
- O=C(O)CN1C(=O)CN=C(c2ccccn2)c2cc(Cl)ccc21 — higher, 1.7
- C/C=C/CC1(CC)C(=O)NC(=S)NC1=O — lower, 0.45
- CCC1CN1P(=O)(Oc1ccc(Cl)cc1)N1CC1CC (centres undefined) — higher, 0.7
- CN(C)C1CCc2[nH]c3c(F)cc(F)cc3c2C1 (centres undefined) — lower, -0.15
- CN1CCC2(O)OCCCC2C1 (centres undefined) — higher, 1.05
- NC(=S)c1cn([C@@H]2O[C@H](CO)[C@@H](O)[C@H]2O)c2ncnc(N)c12 — higher, 1.1
- C1CN1c1nc(N2CC2)nc(N2CC2)n1 — lower, -0.6
- O=C(O)c1[nH]c(=O)[nH]c(=O)c1F — higher, 1.85
- Cc1c(C(=O)c2ccccc2)c2ccccc2n1C — higher, 1.75
- COc1cc(C=C2C(=O)NC(=O)NC2=O)ccc1O — higher, 0.65
- COc1cc2c(cc1O)C[C@H]1c3c(cc(O)c(OC)c3-2)CCN1C — higher, 0.75
- CN1C(=O)CC[C@@]2(C)C1=CC[C@@H]1[C@@H]2CC[C@@]2(C)[C@H]1CC[C@]2(C)O — lower, -0.25
- CC(=O)Nc1ccc([As](=O)(O)c2ccc([N+](=O)[O-])cc2)cc1 — lower, 0.35
- O=P1(N(CCCl)CCCl)NCCCO1 (centres undefined) — lower, -1
- COc1ccc(C(=O)OC2CCC3(C)C4CCC5C6(O)CC(O)C7(O)C(CN8CC(C)CCC8C7(C)O)C6(O)CC53OC24O)cc1OC (centres undefined) — lower, -0.4
- COc1ccc2c(c1)NP(=S)(Oc1ccccc1)N2 (centres undefined) — lower, -0.4
- C=C1C[C@@H]2[C@H](CC[C@]3(C)C(=O)CC[C@@H]23)[C@@]2(C)C=CC(=O)C=C12 — lower, -1.65
- CN(C)P(=O)(N(C)C)N1CC1 — lower, -0.35
- C1CC2NCCC3NCCC(N1)N32 (centres undefined) — lower, -0.55
- Cn1cc(C=O)c2nccnc21 — lower, -0.4
- C=CCN1CCC23c4c5ccc(O)c4OC2C(=O)CCC3(O)C1C5 (centres undefined) — higher, 2.2
